Values from PubChem BioAssay AID1259308 (NCATS, 2017).
In all, the deposit lists about 59,000 reagents; this is an unselected part. About 1,510 of them (2.6%) were called active. 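Calls use total luciferase alone and ignore viability, so some active siRNAs may act by altering cell number.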 The numbers tell different reagents against one gene apart. Not all columns of the deposit are shown. Reagent sequences are not shown.

- Aim: 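Genes whose loss raises luciferase production in HEK293 cells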 (primary screen)
- Cell system: human HEK293 embryonic kidney cells stably expressing firefly luciferase (HEK-CMV-Luc2-Hygro)
- Knock-down reagent: single siRNA against human genes, 0.8 pmol siRNA per well
- Timing: 72 h
- Measurement: 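Luciferase light (ONE-Glo) measured on one replicate plate set and viability (CellTiter-Glo) on the other, scaled to a negative control siRNA, with robust z-scores and luciferase per cell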
- Direction: total luciferase, z-score and total luciferase, % of control: higher = more reporter protein produced
- Rule for the call: 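An siRNA counts as active if its total luciferase robust z-score exceeds 3; genes with two or more such siRNAs out of three were retested with fresh siRNAs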
- Meaning of the calls: active = raised luciferase; inactive = no rise

KANK1 (KN motif and ankyrin repeat domains 1) #1 — total luciferase, z-score = -0.364; total luciferase, % of control = 74.7; Outcome = inactive
KANK1 (KN motif and ankyrin repeat domains 1) #2 — total luciferase, z-score = -0.833; total luciferase, % of control = 65.3; Outcome = inactive
KANK1 (KN motif and ankyrin repeat domains 1) #3 — total luciferase, z-score = -1.62; total luciferase, % of control = 49.6; Outcome = inactive
GAPDH (glyceraldehyde-3-phosphate dehydrogenase) #1 — total luciferase, z-score = -0.15; total luciferase, % of control = 78.9; Outcome = inactive
GAPDH (glyceraldehyde-3-phosphate dehydrogenase) #2 — total luciferase, z-score = 0.301; total luciferase, % of control = 87.9; Outcome = inactive
GAPDH (glyceraldehyde-3-phosphate dehydrogenase) #3 — total luciferase, z-score = -0.253; total luciferase, % of control = 76.9; Outcome = inactive
RPL23AP43 (ribosomal protein L23a pseudogene 43) #1 — total luciferase, z-score = 0.126; total luciferase, % of control = 84.4; Outcome = inactive
RPL23AP43 (ribosomal protein L23a pseudogene 43) #2 — total luciferase, z-score = -0.57; total luciferase, % of control = 70.6; Outcome = inactive
RPL23AP43 (ribosomal protein L23a pseudogene 43) #3 — total luciferase, z-score = -1.71; total luciferase, % of control = 47.8; Outcome = inactive
AURKAIP1 (aurora kinase A interacting protein 1) #1 — total luciferase, z-score = 1.25; total luciferase, % of control = 107; Outcome = inactive
AURKAIP1 (aurora kinase A interacting protein 1) #2 — total luciferase, z-score = 0.625; total luciferase, % of control = 94.3; Outcome = inactive
AURKAIP1 (aurora kinase A interacting protein 1) #3 — total luciferase, z-score = -0.194; total luciferase, % of control = 78; Outcome = inactive
ZNF773 (zinc finger protein 773) #1 — total luciferase, z-score = -0.517; total luciferase, % of control = 71.6; Outcome = inactive
ZNF773 (zinc finger protein 773) #2 — total luciferase, z-score = 1.37; total luciferase, % of control = 109; Outcome = inactive
ZNF773 (zinc finger protein 773) #3 — total luciferase, z-score = 0.383; total luciferase, % of control = 89.5; Outcome = inactive
SPANXN4 (SPANX family member N4) #1 — total luciferase, z-score = 0.0125; total luciferase, % of control = 82.1; Outcome = inactive
SPANXN4 (SPANX family member N4) #2 — total luciferase, z-score = 0.0884; total luciferase, % of control = 83.6; Outcome = inactive
SPANXN4 (SPANX family member N4) #3 — total luciferase, z-score = 1.11; total luciferase, % of control = 104; Outcome = inactive

Ordered by “total luciferase, % of control” (high to low): 6 of the entries above.
GAPDH (glyceraldehyde-3-phosphate dehydrogenase) #2 — total luciferase, z-score = 0.301; total luciferase, % of control = 87.9; Outcome = inactive
RPL23AP43 (ribosomal protein L23a pseudogene 43) #1 — total luciferase, z-score = 0.126; total luciferase, % of control = 84.4; Outcome = inactive
GAPDH (glyceraldehyde-3-phosphate dehydrogenase) #1 — total luciferase, z-score = -0.15; total luciferase, % of control = 78.9; Outcome = inactive
GAPDH (glyceraldehyde-3-phosphate dehydrogenase) #3 — total luciferase, z-score = -0.253; total luciferase, % of control = 76.9; Outcome = inactive
KANK1 (KN motif and ankyrin repeat domains 1) #2 — total luciferase, z-score = -0.833; total luciferase, % of control = 65.3; Outcome = inactive
KANK1 (KN motif and ankyrin repeat domains 1) #3 — total luciferase, z-score = -1.62; total luciferase, % of control = 49.6; Outcome = inactive

More reagents follow:
KCNJ5 (potassium inwardly rectifying channel subfamily J member 5) #1 — total luciferase, z-score = 0.445; total luciferase, % of control = 90.7; Outcome = inactive
KCNJ5 (potassium inwardly rectifying channel subfamily J member 5) #2 — total luciferase, z-score = -0.642; total luciferase, % of control = 69.1; Outcome = inactive
KCNJ5 (potassium inwardly rectifying channel subfamily J member 5) #3 — total luciferase, z-score = 1.55; total luciferase, % of control = 113; Outcome = inactive
KIAA2012 #1 — total luciferase, z-score = -0.814; total luciferase, % of control = 65.7; Outcome = inactive
KIAA2012 #2 — total luciferase, z-score = -0.101; total luciferase, % of control = 79.9; Outcome = inactive
KIAA2012 #3 — total luciferase, z-score = 0.32; total luciferase, % of control = 88.2; Outcome = inactive
KIAA2012 #4 — total luciferase, z-score = -1.32; total luciferase, % of control = 55.7; Outcome = inactive
KIAA2012 #5 — total luciferase, z-score = -0.408; total luciferase, % of control = 73.8; Outcome = inactive
KIAA2012 #6 — total luciferase, z-score = -1.99; total luciferase, % of control = 42.3; Outcome = inactive
ISX (intestine specific homeobox) #1 — total luciferase, z-score = -0.586; total luciferase, % of control = 70.2; Outcome = inactive
ISX (intestine specific homeobox) #2 — total luciferase, z-score = 0.518; total luciferase, % of control = 92.2; Outcome = inactive
ISX (intestine specific homeobox) #3 — total luciferase, z-score = 0.295; total luciferase, % of control = 87.8; Outcome = inactive
NRBP1 (nuclear receptor binding protein 1) #1 — total luciferase, z-score = -0.899; total luciferase, % of control = 64; Outcome = inactive
NRBP1 (nuclear receptor binding protein 1) #2 — total luciferase, z-score = -0.511; total luciferase, % of control = 71.7; Outcome = inactive
NRBP1 (nuclear receptor binding protein 1) #3 — total luciferase, z-score = -0.977; total luciferase, % of control = 62.5; Outcome = inactive
SMAP2 (small ArfGAP2) #1 — total luciferase, z-score = 3.19; total luciferase, % of control = 145; Outcome = active
SMAP2 (small ArfGAP2) #2 — total luciferase, z-score = -0.215; total luciferase, % of control = 77.6; Outcome = inactive
SMAP2 (small ArfGAP2) #3 — total luciferase, z-score = 2.61; total luciferase, % of control = 134; Outcome = inactive
POLR2J2 (RNA polymerase II subunit J2) #1 — total luciferase, z-score = -1.25; total luciferase, % of control = 57.1; Outcome = inactive
POLR2J2 (RNA polymerase II subunit J2) #2 — total luciferase, z-score = -0.397; total luciferase, % of control = 74; Outcome = inactive
POLR2J2 (RNA polymerase II subunit J2) #3 — total luciferase, z-score = -0.705; total luciferase, % of control = 67.9; Outcome = inactive
BRCA1 (BRCA1 DNA repair associated) #1 — total luciferase, z-score = 0.958; total luciferase, % of control = 101; Outcome = inactive
BRCA1 (BRCA1 DNA repair associated) #2 — total luciferase, z-score = 1.15; total luciferase, % of control = 105; Outcome = inactive
BRCA1 (BRCA1 DNA repair associated) #3 — total luciferase, z-score = 0.163; total luciferase, % of control = 85.1; Outcome = inactive
